Assay results published in patent publication US20100168038A1, “USE OF COMPOUNDS IN COMBINATION WITH GAMMA-IRRADIATION FOR THE TREATMENT OF CANCER” (priority 2006, published 2010).
The source gives many values for each of these; only a part stands here. Residues, ends and D or L forms follow the SMILES beside them.

System: EL-4 lymphoma cells
Experiment: Tumor growth of EL-4 lymphoma in C57Bl/6 mice, compound with gamma-irradiation
Format: in vivo
Conditions: EL-4, irradiation + Z-GLA-OH; day 65; single mouse
Excerpt: Tumor Growth Experiments. Tumor cells were washed in PBS and resuspended in a volume of 200 micro-l per inoculate. The cells were then inoculated into the right flank at 10^6 per mouse and growth of the tumor was monitored by measurement two times per week. The initiation of anti-tumor treatment of the mice was to some extent individualized according to when tumor growth started in each mouse. The mice were irradiated with 4 Gy prior to tumor inoculation in order to inhibit anti-tumor immune responses. The tumor volume was calculated as the mean volume in mice with tumors growth, according to (a1×a2×a3)/2 (the numbers ai denote tumor diameter, width and depth). The time of first palpation varied between different mice, although the general pattern of growth was similar in virtually all of the mice. In most diagrams a log-scale is used to better visualize the therapeutic effects against small tumors, i.e. the presence of complete rejections. For inhibition of TPPII in vivo we made intraperitoneal injections with 13.8 mg per kg of body weight (14 micro-l of a 50 mM solution/mouse) of the Subtilisin inhibitor Z-Gly-Leu-Ala-OH (Z-GLA-OH, Bachem, Weil am Rhein, Germany) twice per week, diluted into 200 micro-l PBS. All gamma-irradiations were full body exposures. […]

`CC(C)C[C@H](NC(=O)CNC(=O)OCc1ccccc1)C(=O)N[C@@H](C)C(=O)O` [Z-GLA-OH, Z-Gly-Leu-Ala-OH] (HELM PEPTIDE1{[O=C(OCc1ccccc1)[*:2]].G.L.A}$$$$V2.0) was tested, and the tumor volume was 0.10 mm^3.
